± gives the standard deviation of the averaged measurements. The list shows a part of the results. This data set is noisy: repeats of one test often differ as much as different tests do.
test system: IL-6-GFP PC-9GR; assay: IL-6-GFP fluorescence relative to DMSO control (fraction of control); higher = more IL-6-GFP expression; conditions: compound concentration: 10 uM; treatment time: 48 h
Description: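 IL-6-GFP-overexpressing PC-9 and PC-9GR EGFR-mutant lung cancer cells (3000 cells/well, 96-well) were treated for 48 h with each compound of the Selleck L2000 library at 10 uM. IL-6-GFP fluorescence was read on a high-content screening system, and viability by CCK-8 absorbance on a parallel plate set. Each value was normalised as compound well / DMSO control well; two independent replicates.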

Compound	IL-6-GFP fluorescence
CC12CCC3C(CCC4=C(O)C(=O)CCC43C)C1CCC2=O (configuration not stated) [Formestane]	0.768 ± 0.29
Cl.Cn1c(CCCC(=O)O)nc2cc(N(CCCl)CCCl)ccc21 [Bendamustine HCl]	0.9408 ± 0.0084
CCC1=CC2CN3CCc4c([nH]c5ccccc45)C(C(=O)OC)(C2)C13 (configuration not stated) [Catharanthine]	0.996 ± 0.12
C=CCN1CC(C(=O)N(CCCN(C)C)C(=O)NCC)CC2c3cccc4[nH]cc(c34)CC21 (configuration not stated) [Cabergoline]	0.925 ± 0.059
CCC1(O)C(=O)OCc2c1cc1n(c2=O)Cc2cc3ccccc3nc2-1 (configuration not stated) [Camptothecin]	0.803 ± 0.11
CC1CCC2N(C1)CC1C3CC4C(CC(O)C5CC(O)CCC54C)C3CCC1C2(C)O (configuration not stated) [Peimine]	0.817 ± 0.086
COc1cc(C2c3cc4c(cc3C(O)C3COC(=O)C23)OCO4)cc(OC)c1OC (configuration not stated) [Picropodophyllin (PPP)]	1.08 ± 0.031
CN(C)NC(=O)CCC(=O)O [Daminozide]	0.51 ± 0.46
NC(Cc1ccc(N(CCCl)CCCl)cc1)C(=O)O (configuration not stated) [Melphalan]	0.874 ± 0.095
O=C(O)c1nn(Cc2ccc(Cl)cc2Cl)c2ccccc12 [Lonidamine]	1.05 ± 0.45
Cn1cc(C2=C(c3cn(C4CCN(Cc5ccccn5)CC4)c4ccccc34)C(=O)NC2=O)c2ccccc21	1.11 ± 0.19
CC(C)(C)NCC(O)c1ccccc1Cl.Cl (configuration not stated) [Tulobuterol hydrochloride]	0.86 ± 0.011
COC1=CC2C3Cc4ccc(OC)c(O)c4C2(CCN3C)CC1=O (configuration not stated) [Sinomenine]	0.726 ± 0.16
O=C(O)C1C2CCC(O2)C1C(=O)[O][Na] (configuration not stated) [Sodium Demethylcantharidate]	0.996 ± 0.34
CC(C)C12OC1C1OC13C1(C)CCC4=C(COC4=O)C1CC1OC13C2=O (configuration not stated) [Triptonide]	1.36 ± 0.38
Cn1c(CCCC(=O)O)nc2cc(N(CCCl)CCCl)ccc21 [Bendamustine]	0.874 ± 0.072

Compound	IL-6-GFP fluorescence
O=c1c2ccccc2[se]n1-c1ccccc1 [Ebselen]	0.97 ± 0.43
c1ccc2c(c1)Sc1ccccc1N2CC1CN2CCC1CC2 (configuration not stated) [Mequitazine]	0.973 ± 0.42
CC12CCC3c4ccc(OC(=O)N(CCCl)CCCl)cc4CCC3C1CCC2OP(=O)([O-])[O-].[Na+].[Na+] (configuration not stated) [Estramustine phosphate sodium]	1.04 ± 0.24
COC1=CC2C3Cc4ccc(OC)c(O)c4C2(CCN3C)CC1=O.Cl (configuration not stated) [Sinomenine hydrochloride]	0.947 ± 0.023
COc1cc2c(cc1O)CC1c3c(cc(O)c(OC)c3-2)CCN1C (configuration not stated) [Boldine]	0.8442 ± 0.0055
CCC1(O)C(=O)OCc2c1cc1n(c2=O)Cc2c-1nc1ccccc1c2CCNC(C)C.Cl (configuration not stated) [Belotecan (CKD-602) hydrochloride]	1.09 ± 0.082
COC(=O)CC(O)(CCC(C)(C)O)C(=O)OC1C(OC)=CC23CCCN2CCc2cc4c(cc2C13)OCO4 (configuration not stated) [Harringtonine]	1.28 ± 0.37
Cc1cccc(C(C)c2c[nH]cn2)c1C.Cl (configuration not stated) [Medetomidine HCl]	0.909 ± 0.12
CC(C)[N+](C)(CCC(C(N)=O)(c1ccccc1)c1ccccc1)C(C)C.[I-] [Isopropamide Iodide]	0.901 ± 0.081
CC1CC(=O)CC2CCC3C4CCC(O)C4(C)CCC3C12C (configuration not stated) [Mesterolone]	0.919 ± 0.076
Cc1c(N)nc(C(CC(N)=O)NCC(N)C(N)=O)nc1C(=O)NC(C(=O)NC(C)C(O)C(C)C(=O)NC(C(=O)NCCc1nc(-c2nc(C(=O)NCCC[S+](C)C)cs2)cs1)C(C)O)C(OC1OC(CO)C(O)C(O)C1OC1OC(CO)C(O)C(OC(N)=O)C1O)c1c[nH]cn1.O=S(=O)([O-])O (configuration not stated) [Bleomycin sulfate]	1.09 ± 0.016
CC(C)C12OC1C1OC13C1(C)CCC4=C(COC4=O)C1CC1OC13C2O (configuration not stated) [Triptolide (PG490)]	0.899 ± 0.034
COc1cc2c(c(OC)c1OC)-c1ccc(OC)c(=O)cc1C(NC(C)=O)CC2 (configuration not stated) [Colchicine]	0.845 ± 0.18
O=C(O)CCCc1ccc(N(CCCl)CCCl)cc1 [Chloroambucil]	0.59 ± 0.09
O=P1(NCCCl)OCCCN1CCCl (configuration not stated) [Ifosfamide]	1.01 ± 0.079
O.O=P1(N(CCCl)CCCl)NCCCO1 (configuration not stated) [Cyclophosphamide Monohydrate]	0.78 ± 0.29

An excerpt from above in order of number of heavy atoms, falling.
Compound	IL-6-GFP fluorescence
COC(=O)CC(O)(CCC(C)(C)O)C(=O)OC1C(OC)=CC23CCCN2CCc2cc4c(cc2C13)OCO4 (configuration not stated) [Harringtonine]	1.28 ± 0.37
COc1cc2c(c(OC)c1OC)-c1ccc(OC)c(=O)cc1C(NC(C)=O)CC2 (configuration not stated) [Colchicine]	0.845 ± 0.18
c1ccc2c(c1)Sc1ccccc1N2CC1CN2CCC1CC2 (configuration not stated) [Mequitazine]	0.973 ± 0.42
